The results in this text go back to doi:10.1101/2021.03.12.435139.

For at least one entry, the source does not settle the construct or the ends of the probe. No signal at the amounts used counts as a negative. Tags and fusion partners may be left off the protein sequences shown.

For the data set, the target named is T1, PPR domain of POLRMT (Drosophila melanogaster) (UniProt Q9VPW4).
T1 sequence (looked up): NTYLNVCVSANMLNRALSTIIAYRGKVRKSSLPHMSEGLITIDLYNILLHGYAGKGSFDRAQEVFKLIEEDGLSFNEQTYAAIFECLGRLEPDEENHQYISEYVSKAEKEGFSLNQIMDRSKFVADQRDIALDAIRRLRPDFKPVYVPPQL
As to the kind of experiment: EMSA. To be noted: 50 nM probe, 0-1 µM PPR; residues 314-464. A general note: Mobility shift assays separate free from complexed probe on a gel.

Consider “GTAAAATACTTTATATATAGAGCTTAAATC (double strand) [dsDNA EMSA probe]”, for which the binding result is “no binding”.
